## Screening data, single-dose tests

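Phenotypic screen: M. tuberculosis growth, glucose 7H9 medium, 3 days; the read-out is not stated. Tested at 50 µM. The record gives no direction; compounds that gave an IC50 in retests scored well above the rest, so higher reads as more growth inhibition. About 69,000 compounds were tested under these conditions; 1.1% (about 760) showed 50% or more at least once.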

Each number is a percent effect as filed. The controls that fix the scale are not given in the record; negative values are as filed. Compounds were drawn at random from those tested, without regard to their results. Two or more numbers in one place are separate tests of the same structure; such repeats can differ widely.

- CC(NC(=O)Cn1cccnc1=O)c1ccc(C(F)(F)F)cc1 (centres unmarked) | -18.54%
- CC(c1cccc(-c2nccn2CCc2ccccn2)c1)N(C)C (centres unmarked) | 8.001%
- CN1CC(c2ccccc2)C2(CCN(C(=O)c3cccn3C)CC2)C1=O (centres unmarked) | -4.672% and 7.223%
- COc1cc(C#N)ccc1OCC(=O)N(C1CC1)C(C)c1ccco1 (centres unmarked) | 19.89% and 0.4152%
- [H][C@]12CCCCN1CCC[C@H]2CCC(=O)NCCc1cc(O)nc(C)n1 | 2.79%
- O=C(COC1CCCC1)NC(C(=O)Nc1cc[nH]n1)c1ccccc1 (centres unmarked) | 9.434% and -14.35%
- CCCc1cc(NCCN2CCNC2=O)n2nccc2n1 | -42.17%
- Cc1cnc(N2CCC(c3ccccc3)CC2)nc1-c1ccnn1C | 28.16%
- COc1ccc2nnc(CCCC(=O)NCc3ccccc3)n2n1 | 0.06434%
- CCC[C@@H]1CN(Cc2c[nH]nc2-c2ccc(OC)cc2)C[C@H]1NC(C)=O | 4.166%
- Cc1noc(C)c1CCCNC(=O)C1CCN(C(C)C)CC1 | -3.931%
- COc1cccc(COCC(=O)NC(C(N)=O)c2ccccc2F)c1 (centres unmarked) | -11.25% and -4.077%
- Cc1nc(CN2CCCn3cnc(COCC4CC4)c3C2)cs1.O=C(O)C(F)(F)F | -1.631% and 8.775%
- CC(C)C1CN(C(=O)c2ccsc2)CCS1 (centres unmarked) | 5.783% and 26.63%
- COc1ccc(CN(Cc2cncn2C)CC2CCCO2)cc1OC.O=C(O)CC(O)(CC(=O)O)C(=O)O (centres unmarked) | 6.461%
- CCN(CC)C(=O)CSc1nc2cc(C)nc-2c(O)n1Cc1ccco1 | -13.94%
- CCN(CC)C1(Cc2cc(-c3cccc(O)c3)on2)COC1 | 9.065% and 4.272%
- CCN(C(=O)NCc1ncc(C)c(OC)c1C)C(C)c1cccnc1 (centres unmarked) | 6.97%
- CCCNC(=O)C(C)n1cc(Br)cn1 (centres unmarked) | -33.95%
- Cc1csc(-c2cccc(NC(=O)N3CCOCC3)c2)n1 | 6.562%
- Cn1ccnc1-c1cccc(NC(=O)NCCCN2CCOCC2)c1 | -27.59%
- Cc1nc(NC(=O)N2CCCC(N(C)C)C2)nn1C (centres unmarked) | 4.079%
- COCC1CC2(CCN(C(=O)c3cc(C)oc3C)CC2)CN1C(C)C.O=C(O)C(F)(F)F (centres unmarked) | -13.16%
- COc1cccc(F)c1CN1CCC(c2nc(C)cc(C)n2)C1 (centres unmarked) | -32.54%
- O=C(O)C(F)(F)F.O=C(O)C(F)(F)F.[H][C@]12C[C@@H](CN3CCCC3)N(C)[C@@]1([H])CCN(C(=O)c1cc(C)oc1C)C2 | -9.656%
- Cc1cc(CN2CCN(CCOc3cccc(C#N)c3)CC2)no1 | -17.49%
- O=C(NCc1cc[nH]n1)NCC(c1ccc(F)cc1)N1CCOCC1 (centres unmarked) | 18.01%
- O=C(NCC1Cn2nnc(-c3ccncc3)c2CO1)c1ccc[nH]1 (centres unmarked) | -17.35%
- CCOc1cc(CNCc2cnc(C)cn2)c(Cl)cc1OC(C)C | 12.44%
- CN1CCN(C(=O)C2CCCN(c3cccnn3)C2)CC1 (centres unmarked) | 58.83%
- c1ccc(CCCN2CCN(c3ccc4nncn4n3)CC2)cc1 | 16.02%
- O=C(CCCc1ccccn1)NCC(O)c1c(F)cccc1F (centres unmarked) | -1.63%
- O=C(Nc1ccccc1)c1cc2n(n1)CCCN(C(=O)c1ccc[nH]1)C2 | -16.51% and -2.957%
- O=C1CCCC2=C1C(c1cccc(F)c1F)Nc1nonc1N2 (centres unmarked) | 13.37% and 8.697%
- [H][C@@]12CN(C(=O)N(C)C)C[C@]1([H])C(=O)NC21CCN(C(=O)CC(C)C)CC1 | 6.544%
- CN(C)CC(c1ccccc1)N(C)C(=O)c1cccc(NCC(=O)O)c1 (centres unmarked) | -3.169% and -10.7%
- CSCCC(NC(=O)c1ccccc1)C(=O)N(C)Cc1ccsc1 (centres unmarked) | -8.753%

Repeated from the top, 5 entries:

| structure | effect |
|---|---|
| `CC(NC(=O)Cn1cccnc1=O)c1ccc(C(F)(F)F)cc1` (centres unmarked) | -18.54 |
| `CC(c1cccc(-c2nccn2CCc2ccccn2)c1)N(C)C` (centres unmarked) | 8.001 |
| `CN1CC(c2ccccc2)C2(CCN(C(=O)c3cccn3C)CC2)C1=O` (centres unmarked) | -4.672 and 7.223 |
| `COc1cc(C#N)ccc1OCC(=O)N(C1CC1)C(C)c1ccco1` (centres unmarked) | 19.89 and 0.4152 |
| `[H][C@]12CCCCN1CCC[C@H]2CCC(=O)NCCc1cc(O)nc(C)n1` | 2.79 |

Source: ChEMBL document CHEMBL3988442, “University of Dundee, Small-Polar-MMV Screening Library” (2021).